Laboratory results from US7964598B2 (The J. David Gladstone Institutes, priority 1995, dated 2011).

Tested on: emulsion particles
Assay: Control emulsion binding assays without compounds
Conditions: second line headed Mean; n = 9
Method: Preparation of emulsion particles. Triolein (160 mg) and L-alpha-Phosphatidylcholine (40 mg) are combined and dried under nitrogen. After the addition of 8 mls of buffer (10 mM Tris, 100 mM KCl, 1 mM EDTA, pH 8.0), the mixture is sonicated in a water bath to obtain a heterogeneous mix of emulsion particles. The particles are harvested by ultracentrifugation (TLA 100.2 rotor, 30,000 rpm for 30 minutes) and the subsequent lipid cake is removed by tube slicing and resuspended in 100 μt 20 mM Phosphate Buffer (PB). Triolein and phospholipid content are measured and total emulsion particle concentration is determined.
Radiolabelling Freshly denatured and renatured Apolipoprotein E3 and E4 are radiolabelled using Bolton-Hunter Reagent [^125I] (ICN). Specific Activity is determined using Lowry method and Gamma 8000 counter.
Binding Affinity Assay. […] In glass tubes, 25 μg of protein (with iodinated tracer) was reduced with 1% β-mercaptoethanol. Two hundred and fifty μg of emulsion particles and 2.5 μl of compound (10 mM stock) were added and the final mixture was brought up to 250 μl with 20 mM phosphate buffer (PB). The reaction mixture was then incubated in a 37° C. water bath for 2 hours before being transferred to 1.5 ml ultracentrifuge tubes. […] These fractions were then combined with the respective half of the actual tube and counted using a Gamma-8000.

Substance | Mean [%]
apoE3: human apolipoprotein E3 isoform, also iodinated | 92
apoE4: human apolipoprotein E4 isoform, also iodinated | 88
